From patent publication US9550768B2, “Kinase modulation and indications therefor” (PLEXXIKON INC., priority 2011, dated 2017)
Some results were stated once for a whole list of compounds, not compound by compound.

Target: T1, FLT3-ITD (Homo sapiens, UniProt P36888)
T1 sequence (P36888 with tags, fused parts or gaps INS600HVDFREYEYD): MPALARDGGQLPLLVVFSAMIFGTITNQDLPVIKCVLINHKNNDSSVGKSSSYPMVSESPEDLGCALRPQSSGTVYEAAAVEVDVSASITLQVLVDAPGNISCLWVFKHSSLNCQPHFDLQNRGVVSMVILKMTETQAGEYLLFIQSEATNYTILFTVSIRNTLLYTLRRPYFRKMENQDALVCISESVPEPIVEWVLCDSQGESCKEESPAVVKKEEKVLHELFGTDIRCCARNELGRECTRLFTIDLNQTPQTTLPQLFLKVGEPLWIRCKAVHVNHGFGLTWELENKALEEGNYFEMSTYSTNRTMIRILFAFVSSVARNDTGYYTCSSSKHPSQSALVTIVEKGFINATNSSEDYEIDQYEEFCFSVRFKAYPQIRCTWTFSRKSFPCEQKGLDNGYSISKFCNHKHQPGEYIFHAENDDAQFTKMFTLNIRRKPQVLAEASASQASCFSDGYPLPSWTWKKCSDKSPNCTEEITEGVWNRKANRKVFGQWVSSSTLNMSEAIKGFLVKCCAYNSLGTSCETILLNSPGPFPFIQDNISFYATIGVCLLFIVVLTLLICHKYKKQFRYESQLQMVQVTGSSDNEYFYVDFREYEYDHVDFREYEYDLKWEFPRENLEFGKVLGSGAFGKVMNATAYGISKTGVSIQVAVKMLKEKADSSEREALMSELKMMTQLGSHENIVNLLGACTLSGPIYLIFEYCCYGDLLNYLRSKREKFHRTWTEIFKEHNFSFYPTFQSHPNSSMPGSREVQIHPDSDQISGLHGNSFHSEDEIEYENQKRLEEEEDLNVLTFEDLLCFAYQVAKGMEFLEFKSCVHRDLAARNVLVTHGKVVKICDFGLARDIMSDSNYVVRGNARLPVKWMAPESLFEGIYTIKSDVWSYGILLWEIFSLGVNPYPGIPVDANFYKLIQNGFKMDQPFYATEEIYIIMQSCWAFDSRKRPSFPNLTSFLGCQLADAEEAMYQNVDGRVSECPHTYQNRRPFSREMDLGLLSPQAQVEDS
Assay: Flt3 assays described in Example 3 (cell-based assays of Flt3-ITD kinase activity in MV-4-11 cells)
Settings: read-out: IC50 in the Flt3 assays described above in Example 3

Row | SMILES | IC50 [nM]
1 | O=C(Nc1ccc(Cc2c[nH]c3ncccc23)cn1)c1ccc(F)c(C(F)(F)F)c1 [Compound P-0112, 4-Fluoro-N-[5-(1H-pyrrolo[2,3-b]pyridin-3-ylmethyl)-pyridin-2-yl]-3-trifluoromethyl-benzamide] | < 1000
2 | O=C(Nc1ccc(Cc2c[nH]c3ncccc23)cn1)c1cccc(OC(F)(F)F)c1 [Compound P-0113, N-[5-(1H-Pyrrolo[2,3-b]pyridin-3-ylmethyl)-pyridin-2-yl]-3-trifluoromethoxy-benzamide] | < 1000
3 | O=C(Nc1ccc(Cc2c[nH]c3ncccc23)cn1)c1cccc(C(F)(F)F)c1 [Compound P-0114, N-[5-(1H-Pyrrolo[2,3-b]pyridin-3-ylmethyl)-pyridin-2-yl]-3-trifluoromethyl-benzamide] | < 1000
4 | O=C(Nc1ccc(Cc2c[nH]c3ncccc23)cn1)c1ccc(F)c(Cl)c1 [Compound P-0115, 3-Chloro-4-fluoro-N-[5-(1H-pyrrolo[2,3-b]pyridin-3-ylmethyl)-pyridin-2-yl]-benzamide] | < 1000
5 | O=C(Nc1ccc(Cc2c[nH]c3ncccc23)cn1)c1ccc(F)c(F)c1 [Compound P-0116, 3,4-Difluoro-N-[5-(1H-pyrrolo[2,3-b]pyridin-3-ylmethyl)-pyridin-2-yl]-benzamide] | < 1000
6 | Cc1ccc(F)cc1C(=O)Nc1ccc(Cc2c[nH]c3ncccc23)cn1 [Compound P-0118, 5-Fluoro-2-methyl-N-[5-(1H-pyrrolo[2,3-b]pyridin-3-ylmethyl)-pyridin-2-yl]-benzamide] | < 1000
7 | COc1cccc(C(=O)Nc2ccc(Cc3c[nH]c4ncccc34)cn2)c1 [Compound P-0120, 3-Methoxy-N-[5-(1H-pyrrolo[2,3-b]pyridin-3-ylmethyl)-pyridin-2-yl]-benzamide] | < 1000
8 | O=C(Nc1ccc(Cc2c[nH]c3ncccc23)cn1)c1cccc(F)c1 [Compound P-0121, 3-Fluoro-N-[5-(1H-pyrrolo[2,3-b]pyridin-3-ylmethyl)-pyridin-2-yl]-benzamide] | < 1000
9 | Cc1cccc(C(=O)Nc2ccc(Cc3c[nH]c4ncccc34)cn2)c1 [Compound P-0122, 3-Methyl-N-[5-(1H-pyrrolo[2,3-b]pyridin-3-ylmethyl)-pyridin-2-yl]-benzamide] | < 1000
10 | O=C(Nc1ccc(Cc2c[nH]c3ncccc23)cn1)c1ccnc(Cl)c1 [Compound P-0123, 2-Chloro-N-[5-(1H-pyrrolo[2,3-b]pyridin-3-ylmethyl)-pyridin-2-yl]-isonicotinamide] | < 1000
11 | C[C@@H](Nc1ccc(Cc2c[nH]c3ncccc23)cn1)c1ccccc1 [Compound P-0125, ((R)-1-Phenyl-ethyl)-[5-(1H-pyrrolo[2,3-b]pyridin-3-ylmethyl)-pyridin-2-yl]-amine] | < 1000
12 | c1cc(CNc2ccc(Cc3c[nH]c4ncccc34)cn2)cc(N2CCOCC2)c1 [Compound P-0126, (3-Morpholin-4-yl-benzyl)-[5-(1H-pyrrolo[2,3-b]pyridin-3-ylmethyl)-pyridin-2-yl]-amine] | < 1000
13 | CC(Nc1ccc(Cc2c[nH]c3ncccc23)cn1)c1ccccc1F (stereo not shown) [Compound P-0127, [1-(2-Fluoro-phenyl)-ethyl]-[5-(1H-pyrrolo[2,3-b]pyridin-3-ylmethyl)-pyridin-2-yl]-amine] | < 1000
14 | Fc1cccc(CCNc2ccc(Cc3c[nH]c4ncccc34)cn2)c1 [Compound P-0128, [2-(3-Fluoro-phenyl)-ethyl]-[5-(1H-pyrrolo[2,3-b]pyridin-3-ylmethyl)-pyridin-2-yl]-amine] | < 1000
15 | Clc1cccc(CNc2ccc(Cc3c[nH]c4ncccc34)cn2)c1 [Compound P-0129, (3-Chloro-benzyl)-[5-(1H-pyrrolo[2,3-b]pyridin-3-ylmethyl)-pyridin-2-yl]-amine] | < 1000
16 | Cc1cc(CNc2ccc(Cc3c[nH]c4ncccc34)cn2)nn1C [Compound P-0131, (1,5-Dimethyl-1H-pyrazol-3-ylmethyl)-[5-(1H-pyrrolo[2,3-b]pyridin-3-ylmethyl)-pyridin-2-yl]-amine] | < 1000
